Source: article PMC12402158
These are yes or no findings as the source states them, for the method shown. Binding seen in cells or lysates may run through a third protein.

Target: T1, USP43 as used in the immunoprecipitation with SLC7A11 (Fig. S3B) (human), Q70EL4
T1 chain: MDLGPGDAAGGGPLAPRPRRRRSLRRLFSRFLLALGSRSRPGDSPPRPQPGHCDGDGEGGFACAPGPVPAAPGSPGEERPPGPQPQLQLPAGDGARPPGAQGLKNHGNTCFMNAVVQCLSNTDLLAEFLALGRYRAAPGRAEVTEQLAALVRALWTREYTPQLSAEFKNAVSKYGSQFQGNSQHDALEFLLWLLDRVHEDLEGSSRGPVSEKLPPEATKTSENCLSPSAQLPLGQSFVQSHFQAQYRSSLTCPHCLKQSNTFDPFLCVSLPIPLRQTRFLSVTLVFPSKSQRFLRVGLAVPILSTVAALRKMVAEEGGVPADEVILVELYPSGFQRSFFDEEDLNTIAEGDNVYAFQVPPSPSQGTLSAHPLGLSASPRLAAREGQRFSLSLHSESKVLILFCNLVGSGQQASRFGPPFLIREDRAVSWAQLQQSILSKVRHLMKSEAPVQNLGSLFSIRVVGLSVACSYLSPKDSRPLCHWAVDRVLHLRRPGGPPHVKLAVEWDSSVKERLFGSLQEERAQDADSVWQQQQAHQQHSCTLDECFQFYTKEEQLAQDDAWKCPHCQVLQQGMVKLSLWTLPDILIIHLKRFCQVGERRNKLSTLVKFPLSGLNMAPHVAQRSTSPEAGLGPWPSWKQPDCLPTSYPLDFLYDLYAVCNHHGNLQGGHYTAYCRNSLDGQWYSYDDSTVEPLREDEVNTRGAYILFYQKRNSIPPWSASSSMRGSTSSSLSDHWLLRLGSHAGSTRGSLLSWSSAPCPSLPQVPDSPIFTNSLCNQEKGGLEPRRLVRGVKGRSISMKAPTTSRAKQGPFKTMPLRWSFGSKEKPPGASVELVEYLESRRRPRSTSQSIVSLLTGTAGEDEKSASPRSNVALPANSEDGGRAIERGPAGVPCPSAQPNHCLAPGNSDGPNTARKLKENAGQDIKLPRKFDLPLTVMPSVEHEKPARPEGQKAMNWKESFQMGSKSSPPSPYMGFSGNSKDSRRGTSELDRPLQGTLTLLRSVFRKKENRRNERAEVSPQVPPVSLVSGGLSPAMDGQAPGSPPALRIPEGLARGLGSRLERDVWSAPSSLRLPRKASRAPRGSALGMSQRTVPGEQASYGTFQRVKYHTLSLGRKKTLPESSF
Assay: co-IP; immunoprecipitation to test USP43 with SLC7A11 (Fig. S3B); cells and antibodies not given
Details: remark: other sources report otherwise

B1: SLC7A11 (solute carrier family 7 member 11), Q9UPY5 1-501 (protein)
chain: MVRKPVVSTISKGGYLQGNVNGRLPSLGNKEPPGQEKVQLKRKVTLLRGVSIIIGTIIGAGIFISPKGVLQNTGSVGMSLTIWTVCGVLSLFGALSYAELGTTIKKSGGHYTYILEVFGPLPAFVRVWVELLIIRPAATAVISLAFGRYILEPFFIQCEIPELAIKLITAVGITVVMVLNSMSVSWSARIQIFLTFCKLTAILIIIVPGVMQLIKGQTQNFKDAFSGRDSSITRLPLAFYYGMYAYAGWFYLNFVTEEVENPEKTIPLAICISMAIVTIGYVLTNVAYFTTINAEELLLSNAVAVTFSERLLGNFSLAVPIFVALSCFGSMNGGVFAVSRLFYVASREGHLPEILSMIHVRKHTPLPAVIVLHPLTMIMLFSGDLDSLLNFLSFARWLFIGLAVAGLIYLRYKCPDMHRPFKVPLFIPALFSFTCLFMVALSLYSDPFSTGIGFVITLTGVPAYYLFIIWDKKPRWFRIMSEKITRTLQIILEVVPEEDKL
binding: no binding
